The list is a part of this screen's results and no random one: it is rich in T/C values a quarter to a half above the control, in often repeated tests (any T/C) and in doses without a T/C. Other doses and runs of a compound stand elsewhere. T/C gives the treated animals as a percentage of the vehicle group. Some entries give survivors of the animals treated and no T/C: the source files T/C as zero there, which appears to mark a toxic dose or a test without result, not a measured value. Some survivor counts are full or nearly so, which does not show that the dose was tolerated: the source hardly ever lists a survival T/C far under the control, and the zero likely stands for such cases as well. Counts of survivors are from the toxicity check (mostly the fifth day) where no day follows; animals may have died later. Schedules are NCI's codes, taken here to give the interval after Q, in days (D) or hours (H), and the number of doses after X. Some doses were run more than once; the results are listed from low to high. For survival time, this PubChem deposit counts one and a half times the control or more as active, and values a quarter to a half above the control carry no call in these data; other NCI protocols may use other cut-offs. Some T/C values are followed by the survivors on the day toxicity was checked, most often the fifth; where none is given, no animal had died by that day. Brackets with × give the number of equal values in this list.
Test system: CD2F1 mice, L1210 leukemia ip, survival T/C
Experiment: NCI In Vivo Anticancer Drug Screen. Data for tumor model L1210 Leukemia (intraperitoneal) in CD2F1 (CDF1) mice
Conditions: higher T/C = longer survival
Outline: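 Vehicle-treated tumor-bearing mice served as controls (C) for compound-treated mice (T). Reported figure is T divided by C.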

[1] = T/C endpoint: mean survival time, dose: 200.0 mg/kg/injection, schedule: Q01DX009 (ip), vehicle: saline with Tween-80
[2] = T/C endpoint: mean survival time, dose: 400.0 mg/kg/injection, schedule: Q04DX003 (ip), vehicle: saline with Tween-80
[3] = T/C endpoint: mean survival time, dose: 100.0 mg/kg/injection, schedule: Q04DX003 (ip), vehicle: saline with Tween-80
[4] = T/C endpoint: mean survival time, dose: 200.0 mg/kg/injection, schedule: Q04DX003 (ip), vehicle: saline with Tween-80
[5] = T/C endpoint: median survival time, dose: 400.0 mg/kg/injection, schedule: Q01DX005 (ip), vehicle: distilled water + Tween-80
[6] = T/C endpoint: median survival time, dose: 400.0 mg/kg/injection, schedule: Q01DX009 (ip), vehicle: distilled water + Tween-80

CN1CCN(Cc2nc3cccc4c3c([n+]2[O-])-c2ccccc2-4)CC1
T/C [1]: 131 [5 of 6 alive], 133 [5 of 6 alive], 146 % of control [9 of 10 alive] | survivor count (T/C endpoint: mean survival time, dose: 400.0 mg/kg/injection, schedule: Q01DX009 (ip), vehicle: saline with Tween-80): 0 of 6, 3 of 10, 2 of 6

O=c1oc(-c2ccccc2Cl)nc2cc(Cl)ccc12
survivor count [2]: 0 of 6

CCOc1ccc([NH-])c([NH-])c1.[Cl][Pt+2][Cl]
survivor count (T/C endpoint: mean survival time, dose: 20.0 mg/kg/injection, schedule: Q01DX009 (ip), vehicle: distilled water + Tween-80): 5 of 6 | survivor count (T/C endpoint: mean survival time, dose: 40.0 mg/kg/injection, schedule: Q01DX009 (ip), vehicle: distilled water + Tween-80): 1 of 6

C/C(=C\Cl)CO
survivor count (T/C endpoint: mean survival time, dose: 200.0 mg/kg/injection, schedule: Q01DX009 (ip), vehicle: acetone): 3 of 6

O=c1[nH]c(-c2ccccc2)nc(-c2ccc(Cl)cc2)c1CCO
survivor count [3]: 4 of 6

COc1cc(Cl)ccc1NC(=O)OCCOc1ccc(Br)cc1
survivor count (T/C endpoint: mean survival time, dose: 100.0 mg/kg/injection, schedule: Q01DX009 (ip), vehicle: saline with Tween-80): 3 of 3 | survivor count [1]: 3 of 3

Cn1c(=O)[nH]c2c(nc(-c3ccccc3)n2C)c1=O
survivor count (T/C endpoint: mean survival time, dose: 200.0 mg/kg/injection, schedule: Q01DX005 (ip), vehicle: other): 3 of 5

NC(=S)N/N=C1\CC2CC1C1C=CCC21 (stereo not drawn)
survivor count (T/C endpoint: mean survival time, dose: 400.0 mg/kg/injection, schedule: Q04DX002 (ip), vehicle: saline with Tween-80): 0 of 3

O=S(c1ccc(O)cc1)c1ccc(O)cc1
survivor count [1]: 2 of 3

ClCCn1c(CCl)nc2ccccc21
survivor count (T/C endpoint: mean survival time, dose: 40.0 mg/kg/injection, schedule: Q01DX009 (ip), vehicle: saline): 2 of 6

CC(C)(C#N)C(C)(C)C#N
survivor count [3]: 0 of 6 | survivor count [4]: 0 of 6 | survivor count [2]: 0 of 6

Nc1ccc(-c2ccc(N)cc2O)c(O)c1
survivor count [1]: 1 of 3

CC(=O)OCCN1CC1
survivor count (T/C endpoint: mean survival time, dose: 50.0 mg/kg/injection, schedule: Q01DX009 (ip), vehicle: saline): 0 of 6 | survivor count (T/C endpoint: mean survival time, dose: 100.0 mg/kg/injection, schedule: Q01DX009 (ip), vehicle: saline): 0 of 6

CCOC(=O)N1CCN(c2ccc(Cl)cc2)CC1
survivor count (T/C endpoint: mean survival time, dose: 400.0 mg/kg/injection, schedule: Q04DX003 (ip), vehicle: Klucel (hydroxypropylcellulose) (HPC)): 3 of 6

CCCCCCCCCCCCCCCOc1ccc(OCCCCCCCCCCCCCC)cc1
survivor count (T/C endpoint: mean survival time, dose: 100.0 mg/kg/injection, schedule: Q01DX001 (ip), vehicle: saline with Tween-80): 6 of 6

CC12CCC3C(CCC4CC(OC(=O)Cc5ccc(N(CCCl)CCCl)cc5)CCC43C)C1CCC(=O)N2 (stereo not drawn)
T/C (T/C endpoint: mean survival time, dose: 24.0 mg/kg/injection, schedule: Q01DX009 (ip), vehicle: saline with Tween-80): 140 % of control | T/C (T/C endpoint: median survival time, dose: 6.0 mg/kg/injection, schedule: Q01DX009 (ip), vehicle: saline with Tween-80): 125 % of control | T/C (T/C endpoint: median survival time, dose: 12.0 mg/kg/injection, schedule: Q01DX009 (ip), vehicle: saline with Tween-80): 125 and 130 % of control

Nc1cc(Cl)c2[nH]cnc2n1
T/C (T/C endpoint: mean survival time, dose: 12.5 mg/kg/injection, schedule: Q01DX009 (ip), vehicle: distilled water + Tween-80): 125 % of control | T/C (T/C endpoint: mean survival time, dose: 25.0 mg/kg/injection, schedule: Q01DX009 (ip), vehicle: distilled water + Tween-80): 138 % of control | T/C (T/C endpoint: mean survival time, dose: 25.0 mg/kg/injection, schedule: Q01DX009 (ip), vehicle: water): 125 % of control | T/C (T/C endpoint: mean survival time, dose: 50.0 mg/kg/injection, schedule: Q01DX009 (ip), vehicle: water): 134 % of control | T/C (T/C endpoint: mean survival time, dose: 100.0 mg/kg/injection, schedule: Q01DX009 (ip), vehicle: water): 134 % of control | T/C (T/C endpoint: mean survival time, dose: 133.0 mg/kg/injection, schedule: Q04DX003 (ip), vehicle: saline with Tween-80): 128 % of control | T/C (T/C endpoint: mean survival time, dose: 200.0 mg/kg/injection, schedule: Q01DX009 (ip), vehicle: water): 134 % of control [9 of 10 alive] | T/C (T/C endpoint: mean survival time, dose: 200.0 mg/kg/injection, schedule: Q04DX003 (ip), vehicle: Klucel (hydroxypropylcellulose) (HPC)): 131 % of control | T/C [4]: 140 % of control | T/C (T/C endpoint: mean survival time, dose: 300.0 mg/kg/injection, schedule: Q04DX003 (ip), vehicle: saline with Tween-80): 126 % of control [4 of 6 alive] | T/C (T/C endpoint: median survival time, dose: 25.0 mg/kg/injection, schedule: Q01DX005 (ip), vehicle: distilled water + Tween-80): 106, 108, 113, 120, 121, 125, 126, 127, 130, 138 % of control | T/C (T/C endpoint: median survival time, dose: 25.0 mg/kg/injection, schedule: Q01DX009 (ip), vehicle: distilled water + Tween-80): 108, 117, 117 [5 of 6 alive], 118 (2×), 124, 130, 137, 140, 146, 160 % of control | T/C (T/C endpoint: median survival time, dose: 50.0 mg/kg/injection, schedule: Q01DX005 (ip), vehicle: distilled water + Tween-80): 120, 125, 128, 136, 143, 144, 146, 147, 148, 151 % of control | T/C (T/C endpoint: median survival time, dose: 50.0 mg/kg/injection, schedule: Q01DX005 (ip), vehicle: saline with Tween-80): 135 % of control | T/C (T/C endpoint: median survival time, dose: 50.0 mg/kg/injection, schedule: Q01DX009 (ip), vehicle: distilled water + Tween-80): 130, 137, 139, 140, 144, 146, 148, 148 [5 of 6 alive], 150, 151 [5 of 6 alive], 154, 162 % of control | T/C (T/C endpoint: median survival time, dose: 100.0 mg/kg/injection, schedule: Q01DX005 (ip), vehicle: distilled water + Tween-80): 136, 138, 139, 144, 150, 151, 156, 158, 168 % of control (2×) | T/C (T/C endpoint: median survival time, dose: 100.0 mg/kg/injection, schedule: Q01DX009 (ip), vehicle: distilled water + Tween-80): 144, 146, 147 [5 of 6 alive], 151, 159, 160 (3×), 162, 168, 171, 181 % of control | T/C (T/C endpoint: median survival time, dose: 200.0 mg/kg/injection, schedule: Q01DX005 (ip), vehicle: distilled water + Tween-80): 137, 145 [5 of 6 alive], 146, 150, 151, 159 [5 of 6 alive] (2×), 166, 171 [5 of 6 alive], 181 % of control | T/C (T/C endpoint: median survival time, dose: 200.0 mg/kg/injection, schedule: Q01DX009 (ip), vehicle: distilled water + Tween-80): 105, 139 [5 of 6 alive], 144, 151 [5 of 6 alive], 157, 158, 158 [5 of 6 alive], 160, 168 [4 of 6 alive], 170, 180, 193 % of control [5 of 6 alive] | survivor count (T/C endpoint: median survival time, dose: 200.0 mg/kg/injection, schedule: Q01DX009 (ip), vehicle: saline with Tween-80): 4 of 6 | T/C [5]: 143 [4 of 6 alive] and 197 % of control [5 of 6 alive] | survivor count [5]: 0 of 6, 1 of 6, 2 of 6, 3 of 6 | survivor count (T/C endpoint: median survival time, dose: 400.0 mg/kg/injection, schedule: Q01DX005 (ip), vehicle: saline with Tween-80): 0 of 6 | T/C [6]: 89 [4 of 6 alive], 97 [4 of 6 alive], 108 [5 of 6 alive], 111 [4 of 6 alive], 119 % of control [5 of 6 alive] | survivor count [6]: 0 of 6, 1 of 6, 2 of 6, 3 of 6, 4 of 6 | survivor count (T/C endpoint: median survival time, dose: 400.0 mg/kg/injection, schedule: Q01DX009 (ip), vehicle: saline with Tween-80): 0 of 6

NC(N)=NS(=O)(=O)c1ccc(NCc2c3ccccc3nc3ccccc23)cc1
T/C (T/C endpoint: median survival time, dose: 100.0 mg/kg/injection, schedule: Q01DX005 (ip), vehicle: Klucel (hydroxypropylcellulose) (HPC)): 143 % of control | T/C (T/C endpoint: median survival time, dose: 288.0 mg/kg/injection, schedule: Q01DX005 (ip), vehicle: Klucel (hydroxypropylcellulose) (HPC)): 141 % of control

C(CC1CO1)C1CO1 (stereo not drawn)
T/C (T/C endpoint: mean survival time, dose: 75.0 mg/kg/injection, schedule: Q01DX009 (ip), vehicle: Klucel (hydroxypropylcellulose) (HPC)): 142 % of control | survivor count (T/C endpoint: mean survival time, dose: 112.5 mg/kg/injection, schedule: Q01DX009 (ip), vehicle: Klucel (hydroxypropylcellulose) (HPC)): 3 of 6

N=C(N)SSC(=N)N
survivor count (T/C endpoint: mean survival time, dose: 200.0 mg/kg/injection, schedule: Q01DX009 (ip), vehicle: saline): 1 of 3

CC[n+]1ccccc1CCC(=O)Nc1ccccc1
survivor count [3]: 0 of 6 | survivor count [4]: 0 of 6 | survivor count [2]: 0 of 6

From PubChem BioAssay AID256 (DTP/NCI, 2004)
